No constants are given. Whether binding was seen depends on the method and setting. For part of these data: Binding can be weak; no strength is given.
What was measured:
canine ISG15 (canine) [1] = assay: crystal structure; crystal structures of NS1B-NTR in complex with mISG15, cISG15 or bISG15; both purified
canine ISG15 (canine) [2] = assay: SEC; both purified
cISG15-L16A (canine) = assay: ITC; isothermal titration calorimetry of NS1B-NTR and ISG15 proteins; which was titrated and the conditions are not told in the text shown; both purified

NS1B-NTR, containing the 103 N-terminal residues of NS1B (influenza B virus NS1 protein) (from UniProt P03502 1-103) (domain or fragment)
binding (canine ISG15 (canine) [1]): binds
binding (canine ISG15 (canine) [2]): binds
binding (cISG15-L16A (canine)): no binding
